Reference: PubChem BioAssay AID504467 (National Center for Advancing Translational Sciences (NCATS), 2011)
In all, about 330,000 compounds went through this assay and about 7,700 (2.3%) were called active. This list was built around the results that the source calls inconclusive (neither active nor inactive); the mix of calls is not that of the screen. Calls come from the whole dose curve; as a rule, active = well fitted inhibition curve with a large enough effect; inconclusive = small, poorly fitted or top-dose-only effect, or effect the other way; inactive = flat fitted curve, though single readings scatter. Where the call is inconclusive, the potency comes from a doubtful curve fit.

Assay: qHTS screen for small molecules that inhibit ELG1-dependent DNA repair in human embryonic kidney (HEK293T) cells expressing luciferase-tagged ELG1; note: nearly all actives have a fitted effect of over 55% in size
Conditions: HEK293T ELG1-luciferase reporter, luminescence, 16 h, DNA damage induced by 5-fluorouridine; series mostly up to 46.1 µM
Summary of the method: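 In this reporter screen, reduction of luminescence relative to DMSO vehicle indicated activity. Compounds and 5-fluorouridine were added together to 2,000 cells per well, incubated for 16 hr at 37 °C, then developed with ONE-Glo.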
Potency is the fitted concentration of half-maximal effect.

| Compound | Potency |
| --- | --- |
| COc1ccc(/C=C/C(=O)Nc2ccccc2)cc1S(=O)(=O)N1CCOCC1 | inconclusive: 23.1 µM [inhibitor, partial curve] |
| Cc1ccc(/C=N/Nc2ccc(C(=O)O)cc2)s1 | inconclusive: 0.13 µM [activator, full curve, poor fit] |
| COc1ccc(OC)c(S(=O)(=O)N2CCCC(C(=O)NCc3cccnc3)C2)c1 (centres undefined) | inactive |
| CCCCc1cc(=O)oc2c(C)c(OCC(=O)N3C[C@H]4C[C@@H](C3)c3cccc(=O)n3C4)ccc12 | inconclusive: 0.411 µM [inhibitor, partial curve] |
| C/C(=N\Nc1nc2ccccc2[nH]1)c1cc2ccccc2o1 | inconclusive: 2.59 µM [activator, single point] |
| COc1ccc(C(=O)Nc2cc3c(cc2OC)CCCC3)cc1Br | inactive |
| CCN(C(=O)CSc1cc(C)c2ccccc2n1)c1c(N)n(Cc2ccccc2)c(=O)[nH]c1=O | inconclusive: 8.2 µM [inhibitor, partial curve, poor fit] |
| Cc1cc(OCC(O)CN2CCc3ccccc3C2)cc(C(C)C)c1 (centres undefined) | inconclusive: 20.6 µM [inhibitor, single point] |
| NS(=O)(=O)c1ccc(CCNC(=O)c2cc(-c3ccccc3)nc3ccccc23)cc1 | inconclusive: 20.6 µM [inhibitor, single point] |
| Cc1cc(NC(=O)c2cccc(S(=O)(=O)N3CCCCC3)c2)no1 | inconclusive: 11.6 µM [inhibitor, partial curve] |
| O=C(Nc1ccc2oc(-c3ccncc3)nc2c1)c1ccc2c(c1)OCCO2 | inconclusive: 32.6 µM [activator, partial curve, poor fit] |
| COc1ccc2[nH]c3c(NCCC4=CCCCC4)ncnc3c2c1 | inconclusive: 4.11 µM [inhibitor, single point] |
| CC(=O)N1CCN(c2ccc(NC(=S)NC(=O)c3ccccc3)cc2)CC1 | inactive |
| CC(=O)c1ccc(S(=O)(=O)NC2CC(=O)N(c3cccc(F)c3)C2)cc1 (centres undefined) | inactive |
| COc1ccccc1CNC(=O)C(C)NS(=O)(=O)c1ccc(Br)cc1 (centres undefined) | inactive |
| Cc1ccc(S(=O)(=O)N2CCOCC2)cc1C(=O)NC(=S)N1CC(C)CC(C)C1 (centres undefined) | inconclusive: 5.8 µM [inhibitor, partial curve, poor fit] |
| CCSc1nnc(NC(=O)NC(CC)(C(F)(F)F)C(F)(F)F)s1 | inconclusive: 9.2 µM [inhibitor, partial curve] |
| CCOc1cc(NC(=O)C2CC2)c(OCC)cc1NC(=O)CCn1nnc2ccccc21 | inconclusive: 14.6 µM [inhibitor, partial curve, poor fit] |
| Cc1cc(C)c(C#N)c(SCc2nc3ccccc3[nH]2)n1 | inconclusive: 18.4 µM [activator, partial curve] |
| CCCCC(=O)Nc1ccc2c(c1)nc1n2CCSC1 | inconclusive: 8.2 µM [activator, partial curve] |
| O=C(NC(=S)Nc1ccc(CN2CCOCC2)cc1)c1ccc(-c2cccc(Cl)c2)o1 | inconclusive: 20.6 µM [inhibitor, single point] |
| O=C(Nc1nccs1)c1ccc(Br)c(S(=O)(=O)N2CCOCC2)c1 | active: 20.6 µM |

| Compound | Potency |
| --- | --- |
| Nc1nc(CSC(=S)N2CCOCC2)nc(Nc2ccc(F)cc2)n1 | inconclusive: 3.26 µM [activator, full curve, poor fit] |
| COc1ccc(-c2sc3ccccc3c2C#CCCO)cc1 | inactive |
| CC(Sc1n[nH]c(N)n1)C(=O)NC1CCCCC1C (centres undefined) | inactive |
| O=C(NCCc1ccc(Cl)cc1)c1ccc(S(=O)(=O)N2CCCC2)cc1 | inactive |
| CN(CCOC(=O)c1ccc2c(c1)OCCO2)Cc1ccccc1 | inconclusive: 0.82 µM [inhibitor, single point] |
| CCN(CC(=O)Nc1ccc(NC(C)=O)cc1)C(=O)COc1ccccc1Cc1ccccc1 | inactive |
| O=C(c1ccccc1)c1cc2cc(Cl)ccc2[nH]1 | inconclusive: 5.17 µM [activator, partial curve] |
| CC(=O)Nc1ccc(-c2csc(NC(=O)C3CSC4(C)CCC(=O)N34)n2)cc1 (centres undefined) | inconclusive: 35.5 µM [inhibitor, single point] |
| CCN(CC)c1ccc(NC(=O)CCc2nnc3ccc(N4CCCC4)nn23)c(C)c1 | inconclusive: 18.3 µM [inhibitor, single point] |
| CCCCc1cc(=O)oc2cc(OS(C)(=O)=O)ccc12 | inconclusive: 16.4 µM [activator, partial curve, poor fit] |
| Cc1ccc(C(CC(=O)O)NC(=O)c2ccc(S(=O)(=O)N3CCCC3)cc2)cc1 (centres undefined) | inactive |
| Cc1cccc(N2CCc3c2nc2ccc(Br)cc2c3N)c1 | inconclusive: 29.1 µM [inhibitor, single point] |
| Cc1ccc(S(=O)(=O)N(CC(=O)NCCSc2ccccn2)c2cc(C)cc(C)c2)cc1 | inconclusive: 35.5 µM [inhibitor, single point] |
| Cc1cccc(NC(=S)N2CCCCC2)c1 | inactive |
| Oc1ccc(NC(=S)N=Nc2c(O)[nH]c3ccccc23)cc1 | inconclusive: 23.1 µM [activator, partial curve] |
| CC1(C)Cc2cccc(OCC(=O)NCc3ccccc3)c2O1 | inactive |
| CC1CCCN(S(=O)(=O)c2ccc(C(=O)Nc3nnc(-c4ccncc4)o3)cc2)C1 (centres undefined) | inconclusive: 1.3 µM [inhibitor, partial curve, poor fit] |
| CC(=O)c1c(C)[nH]c(C(=O)Nc2nc(-c3ccccc3)c(C)s2)c1C | inconclusive: 4.61 µM [activator, partial curve] |
| NC(=O)CC(NC(=O)Cc1ccc(Cl)cc1)c1ccc(NC2CCCCCCC2)c([N+](=O)[O-])c1 (centres undefined) | inactive |
| CCc1nn(CC(=O)N2CCN(C)CC2)c(=O)c2cccn12 | inconclusive: 32.6 µM [activator, partial curve, poor fit] |
| COc1cc(C)nc(NC(=O)NC(=O)c2ccc(C(F)(F)F)cc2)n1 | inactive |
| CC(C)c1ccc(NC(=O)COC(=O)[C@@H]2CCCN2C(=O)c2cccs2)cc1 | inconclusive: 18.3 µM [activator, single point] |

At a glance, part of the list above.

| Compound | Potency |
| --- | --- |
| COc1ccccc1CNC(=O)C(C)NS(=O)(=O)c1ccc(Br)cc1 (centres undefined) | inactive |
| Cc1ccc(S(=O)(=O)N2CCOCC2)cc1C(=O)NC(=S)N1CC(C)CC(C)C1 (centres undefined) | inconclusive: 5.8 µM [inhibitor, partial curve, poor fit] |
| CCSc1nnc(NC(=O)NC(CC)(C(F)(F)F)C(F)(F)F)s1 | inconclusive: 9.2 µM [inhibitor, partial curve] |
